In the supplement of paper PMC12067093, “Discovery and optimisation of a covalent ligand for TRIM25 and its application to targeted protein ubiquitination” (Chemical Science, 2025):
Some of the results follow.

Compound: Cc1cc(ccc1-c1ccccc1)C(=O)N1CCCN(CC1)C(=O)CCl [compound 10]
Experiment: probe-labelled cysteine peptide fold change vs DMSO (competition) (log2 fold change); higher = less target engagement (more negative = stronger competition)
Conditions: THP-1, incubation time: 4 h
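Note: competitive profiling in live THP-1 cells: cysteine peptides tagged with an iodoacetamide desthiobiotin (IA-DTB) probe, intensity after compound treatment relative to DMSO-treated cells.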

Target	probe-labelled cysteine peptide fold change (10 µM)	probe-labelled cysteine peptide fold change (50 µM)
CUL1_Q13616_149_ECDEGR (UniProt Q13616)	-0.00786	0.0945
CUL4B_Q13620_810_FICNDDFK (UniProt Q13620)	-0.198	-0.0209
CTSC_P53634_448_GTDECAIESIAVAATPIPK (UniProt P53634)	-0.0111	0.0568
DAZAP1_Q96EP5_63_FKDPNCVGTVLASR (UniProt Q96EP5)	0.157	-0.0582
DCAF8_Q5TAQ9_195_LQHGLEGHTGCVNTLHFNQR (UniProt Q5TAQ9)	-0.272	-0.126
DBR1_Q9UK59_37_RGPGPVDLLLCCGDFQAVR (UniProt Q9UK59)	0.0219	-0.195
DARS2_Q6PI48_459_LRLECADLLETR (UniProt Q6PI48)	-0.0844	0.185
DAZAP1_Q96EP5_124_IFVGGIPHNCGETELR (UniProt Q96EP5)	-0.0141	0.171
CYC1_P08574_219_HGGEDYVFSLLTGYCEPPTGVSLR (UniProt P08574)	0.265	0.31
CYB5R3_P00387_274_DHLPPPEEEPLVLMCGPPPMIQYACLPNLDHVGHPTER (UniProt P00387)	0.0156	0.273
CYFIP1_Q7L576_918_NFVGPPHFQVICR (UniProt Q7L576)	0.098	0.223
CUL4B_Q13620_730_KLQWQSTLGHCVLK (UniProt Q13620)	0.0433	0.161
DCAF5_Q96JK2_368_QPGCTGDLDGR (UniProt Q96JK2)	0.0197	0.241
CTSS_P25774_224_AATCSK (UniProt P25774)	-0.202	-0.328
CTR9_Q6PD62_817_QCSDLLSQAQYHVAR (UniProt Q6PD62)	0.3	0.441
DAXX_Q9UER7_338_HLDLIYNFGCHLTDDYRPGVDPALSDPVLAR (UniProt Q9UER7)	0.00994	0.202
CUL9_Q8IWT3_2300_CTFHHQAR (UniProt Q8IWT3)	-0.13	-0.333
CTTNBP2NL_Q9P2B4_186_QLSSMLVLECK (UniProt Q9P2B4)	0.272	0.432
CTSZ_Q9UBR2_164_DQECDK (UniProt Q9UBR2)	-0.0913	-0.207
CUX1_P39880-9_375_CAELQVR (UniProt P39880)	0.242	0.308
DCAF5_Q96JK2_349_FNPHTYMICSSGVEK (UniProt Q96JK2)	-0.167	-0.0686
DBR1_Q9UK59_371_INPQTTEFCAQLGIIDINVR (UniProt Q9UK59)	-0.286	-0.0445

Target	probe-labelled cysteine peptide fold change (10 µM)	probe-labelled cysteine peptide fold change (50 µM)
CYLD_Q9NQC7_106_FTELLLAITNCEER (UniProt Q9NQC7)	-0.0716	-0.0759
CTSS_P25774_180_GCNGGFMTTAFQYIIDNK (UniProt P25774)	-0.0125	-0.142
CXXC1_Q9P0U4_169+172+175_MCGECEACR (UniProt Q9P0U4)	-0.00812	-0.677
CXXC1_Q9P0U4_486_QQAVREDEESNEGDSDDTDLQIFCVSCGHPINPR (UniProt Q9P0U4)	0.0725	-0.265
DARS2_Q6PI48_459_LECADLLETR (UniProt Q6PI48)	-0.0592	0.225
CUTA_O60888_96_LAACVNLIPQITSIYEWK (UniProt O60888)	-0.112	-0.036
CYC1_P08574_139_HLVGVCYTEDEAK (UniProt P08574)	0.151	0.348
CTSL_P07711_322_NHCGIASAASYPTV (UniProt P07711)	-0.179	-0.234
DCAF12_Q5T6F0_253_EDTNPDNCK (UniProt Q5T6F0)	-0.303	-0.538
CUL2_Q13617_282_MVADHLQFLHAECHNIIR (UniProt Q13617)	-0.000918	-0.0663
CUL4A_Q13619_241_FLEETNCLYAAEGQR (UniProt Q13619)	-0.104	0.0615
DALRD3_Q5D0E6_66_FDDGQVPEHLLHALACLQGPGVAPVLR (UniProt Q5D0E6)	0.315	-0.0543
DCP1A_Q9NPI6_39_QHDPYITSIADLTGQVALYTFCPK (UniProt Q9NPI6)	-0.0807	-0.284
CUL4A_Q13619_379_DKVDHVIEVCFQK (UniProt Q13619)	-0.0194	0.428
DCTD_P32321_83_YPYVCHAELNAIMNK (UniProt P32321)	0.104	0.121
DCTN1_Q14203_81_YFTCDEGHGIFVR (UniProt Q14203)	0.127	0.127
DALRD3_Q5D0E6_314_HLICGPVK (UniProt Q5D0E6)	0.197	-0.389
CXXC1_Q9P0U4_420_IQQWQQSPCIAEEHGK (UniProt Q9P0U4)	0.0146	0.158
CWF19L1_Q69YN2_141_MMLCTTSQFK (UniProt Q69YN2)	0.102	-0.00675
CXXC1_Q9P0U4_420_IQQWQQSPCIAEEHGKK (UniProt Q9P0U4)	-0.0831	-0.307
DBN1_Q16643_96_CACASHVAK (UniProt Q16643)	-0.0825	-0.573
DCLRE1C_Q96SD1_359_VVEILKPLCR (UniProt Q96SD1)	-0.125	-0.31

Target	probe-labelled cysteine peptide fold change (10 µM)	probe-labelled cysteine peptide fold change (50 µM)
DAP3_P51398_356_EFESCIQYYLENNWLQHEK (UniProt P51398)	-0.143	-0.0749
DCTN1_Q14203_677_YEHALSQCSVDVYKK (UniProt Q14203)	-0.0507	0.396
DCXR_Q7Z4W1_58_ECPGIEPVCVDLGDWEATER (UniProt Q7Z4W1)	0.125	0.231
CXXC1_Q9P0U4_175_MCGECEACR (UniProt Q9P0U4)	-0.0641	-0.126
DDAH2_O95865_11_CSHALIR (UniProt O95865)	0.0326	0.0102
DCAF8_Q5TAQ9_273_VAELSATQCCK (UniProt Q5TAQ9)	-0.261	-0.433
DCTN1_Q14203_893_QSCNILISTMNK (UniProt Q14203)	0.197	-0.00944
CYB5R1_Q9UHQ9_278+288_EHLPAPGDDVLVLLCGPPPMVQLACHPNLDK (UniProt Q9UHQ9)	0.257	-0.159
CTU1_Q7Z7A3_144_SCCTFCGVLR (UniProt Q7Z7A3)	-0.353	-1.17
DCLRE1C_Q96SD1_34_AYFLSHCHK (UniProt Q96SD1)	-0.0775	-0.167
DBR1_Q9UK59_139_GHFECPPYNSSTIR (UniProt Q9UK59)	0.0872	0.148
CXorf38_Q8TB03_133_QGPEECDAVALLSLINSCDHFVVDRK (UniProt Q8TB03)	-0.428	-0.14
CTSD_P07339_117_LLDIACWIHHK (UniProt P07339)	-0.11	-0.147
DARS2_Q6PI48_152_TAELLNACK (UniProt Q6PI48)	0.0756	0.133
CUL7_Q14999_60_RGDEGDGGSGQVDCK (UniProt Q14999)	-0.268	-0.211
DBR1_Q9UK59_36_RGPGPVDLLLCCGDFQAVR (UniProt Q9UK59)	0.0792	-0.183
DCAF13_Q9NV06_330_RMQHVICVK (UniProt Q9NV06)	0.29	0.472
DCAF10_Q5QP82_412_NSLEVVTPEVLGESDHGNCITSLQLHPK (UniProt Q5QP82)	0.0465	-0.177
CYTH4_Q9UIA0_49_LKDEIADVFAQIDCFESAEESR (UniProt Q9UIA0)	0.4	0.0852
DCAF12_Q5T6F0_380_LSACYGSK (UniProt Q5T6F0)	-0.161	-0.717
CUL7_Q14999_1405_HSWPVASICHTLNPR (UniProt Q14999)	-0.0598	-0.0134
CTSB_P07858_319_GQDHCGIESEVVAGIPR (UniProt P07858)	-0.0753	-0.0436

Target	probe-labelled cysteine peptide fold change (10 µM)	probe-labelled cysteine peptide fold change (50 µM)
CTSD_P07339_329_AIGAVPLIQGEYMIPCEK (UniProt P07339)	-0.427	-0.317
CYBB_P04839_537_IGVFLCGPEALAETLSK (UniProt P04839)	0.0485	0.104
DCP2_Q8IU60_140_VNKEEAPHDCAAR (UniProt Q8IU60)	-0.144	-0.323
CTSG_P08311_142_AQEGLRPGTLCTVAGWGR (UniProt P08311)	-0.0347	-0.0423
CXorf38_Q8TB03_12_LNCAEYK (UniProt Q8TB03)	-0.408	-0.844
CWC22_Q9HCG8_253_QLCLTASK (UniProt Q9HCG8)	-0.19	0.179
CTSV_O60911_211_ENGGLDSEESYPYVAVDEICK (UniProt O60911)	-0.431	-0.244
CYBB_P04839_369_IVGDWTEGLFNACGCDK (UniProt P04839)	-0.0879	0.149
DCTPP1_Q9H773_110_CRVDLPLAVLSK (UniProt Q9H773)	0.139	0.122
CWC22_Q9HCG8_497_ELCNMILDCCAQQR (UniProt Q9HCG8)	0.0134	-0.685
DCTN1_Q14203_791_DLETSCSDIR (UniProt Q14203)	-0.0273	0.0341
CXXC1_Q9P0U4_38_KPDINCFMIGCDNCNEWFHGDCIR (UniProt Q9P0U4)	0.0402	-1.06
DCAF12_Q5T6F0_177_LPTLDPVCVGDDGHK (UniProt Q5T6F0)	-0.083	-0.146
CTSC_P53634_136_NWACFTGK (UniProt P53634)	-0.212	0.125
DCAF1_Q9Y4B6_1297_TFHLLHTVPALDQCR (UniProt Q9Y4B6)	0.309	0.631
DCAF11_Q8TEB1_460_FSPIHSTGQQFIYSGCSTGK (UniProt Q8TEB1)	0.182	0.247
CTSB_P07858_319_ILRGQDHCGIESEVVAGIPR (UniProt P07858)	0.0097	-0.33
DCAF8_Q5TAQ9_483_GGVVNCLEPHPHLPVLATSGLDHDVK (UniProt Q5TAQ9)	-0.0812	-0.0115
DCUN1D5_Q9BTE7_117_GMTSLQCDCTEK (UniProt Q9BTE7)	0.0628	-0.295
